{"source": "patent US9527887B2", "about": "(priority 2011, dated 2016)", "note": "Not every detail of the peptide structures is certain; ends, links or a residue may be inferred. Where a SMILES comes first, the peptide text is derived from it. Bridges are numbered along the chain shown (N, C = ends)."}
{"test_system": "female CD-1 mice", "type": "in vivo", "settings": "oral gavage, % distance travelled by charcoal front", "units": {"ED50 μg/kg gastrointestinal transit": "µg/kg"}}
{"smiles": "CC(C)C[C@@H]1NC(=O)[C@H](CCC(=O)O)NC(=O)[C@@H]2CSSC[C@@H]3NC(=O)[C@H](C)NC(=O)[C@@H]4CCCN4C(=O)[C@H](CC(N)=O)NC(=O)[C@H](CSSC[C@H](N)C(=O)N2)NC(=O)[C@H](CSSC[C@@H](C(=O)N[C@@H](Cc2ccc(O)cc2)C(=O)O)NC(=O)CNC(=O)[C@H]([C@@H](C)O)NC3=O)NC1=O", "note": "[Peptide 1, CCELCCNPACTGCY] (H-CCELCCNPACTGCY-OH; disulfide 1-6, 2-10, 5-13 (inferred); N-terminus and C-terminus assumed)", "ED50 μg/kg gastrointestinal transit": 0.43}
{"smiles": "C[C@@H]1NC(=O)[C@@H]2CCCN2C(=O)[C@H](CC(N)=O)NC(=O)[C@@H]2CSSC[C@H](N)C(=O)N[C@H]3CSSC[C@H](NC1=O)C(=O)N[C@@H]([C@@H](C)O)C(=O)NCC(=O)N[C@H](C(=O)N[C@@H](Cc1ccc(O)cc1)C(=O)O)CSSC[C@H](NC(=O)[C@H](Cc1ccccc1)NC(=O)[C@H](CCC(=O)O)NC3=O)C(=O)N2", "note": "[Peptide 2, CCEFCCNPACTGCY] (H-CCEFCCNPACTGCY-OH; disulfide 1-6, 2-10, 5-13 (inferred); N-terminus and C-terminus assumed)", "ED50 μg/kg gastrointestinal transit": 2.06}
{"smiles": "C[C@@H]1NC(=O)[C@@H]2CCCN2C(=O)[C@H](CC(N)=O)NC(=O)[C@@H]2CSSC[C@H](NC(=O)[C@H](CC(=O)O)NC(=O)[C@@H](N)CC(=O)O)C(=O)N[C@H]3CSSC[C@H](NC1=O)C(=O)N[C@@H]([C@@H](C)O)C(=O)NCC(=O)N[C@H](C(=O)N[C@@H](Cc1ccc(O)cc1)C(=O)O)CSSC[C@H](NC(=O)[C@H](Cc1ccc(O)cc1)NC(=O)[C@H](CCC(=O)O)NC3=O)C(=O)N2", "note": "[Peptide 4, DDCCEYCCNPACTGCY] (H-DDCCEYCCNPACTGCY-OH; disulfide 3-8, 4-12, 7-15 (inferred); N-terminus and C-terminus assumed)", "ED50 μg/kg gastrointestinal transit": 6.3}
{"smiles": "C[C@@H]1NC(=O)[C@@H]2CCCN2C(=O)[C@H](CC(N)=O)NC(=O)[C@@H]2CSSC[C@H](NC(=O)[C@H](CC(=O)O)NC(=O)[C@H](CC(=O)O)NC(=O)[C@@H](N)CC(=O)O)C(=O)N[C@H]3CSSC[C@H](NC1=O)C(=O)N[C@@H]([C@@H](C)O)C(=O)NCC(=O)N[C@H](C(=O)N[C@@H](Cc1ccc(O)cc1)C(=O)O)CSSC[C@H](NC(=O)[C@H](Cc1ccc(O)cc1)NC(=O)[C@H](CCC(=O)O)NC3=O)C(=O)N2", "note": "[Peptide 5, DDDCCEYCCNPACTGCY]", "ED50 μg/kg gastrointestinal transit": 7.54}
{"smiles": "CC(C)C[C@@H]1NC(=O)[C@H](CCC(=O)O)NC(=O)[C@@H]2CSSC[C@@H]3NC(=O)[C@H](C)NC(=O)[C@@H]4CCCN4C(=O)[C@H](CC(N)=O)NC(=O)[C@H](CSSC[C@H](NC(=O)[C@H](CC(=O)O)NC(=O)[C@H](CC(=O)O)NC(=O)[C@@H](N)CC(=O)O)C(=O)N2)NC(=O)[C@H](CSSC[C@@H](C(=O)N[C@@H](Cc2ccc(O)cc2)C(=O)O)NC(=O)CNC(=O)[C@H]([C@@H](C)O)NC3=O)NC1=O", "note": "[Peptide 17, DDDCCELCCNPACTGCY]", "ED50 μg/kg gastrointestinal transit": 2.9}
